{"sequences": {"note": "Chains of the proteins cited; added tags and fusions are not shown.", "UniProt P11802": "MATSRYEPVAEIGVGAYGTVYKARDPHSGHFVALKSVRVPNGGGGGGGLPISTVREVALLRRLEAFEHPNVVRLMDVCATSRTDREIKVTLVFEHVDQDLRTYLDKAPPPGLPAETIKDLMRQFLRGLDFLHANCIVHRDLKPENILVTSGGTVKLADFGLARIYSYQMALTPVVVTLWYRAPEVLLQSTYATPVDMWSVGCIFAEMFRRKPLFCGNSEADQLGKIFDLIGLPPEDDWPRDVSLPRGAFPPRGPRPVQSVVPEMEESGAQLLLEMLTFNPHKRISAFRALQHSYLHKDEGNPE", "UniProt P24385": "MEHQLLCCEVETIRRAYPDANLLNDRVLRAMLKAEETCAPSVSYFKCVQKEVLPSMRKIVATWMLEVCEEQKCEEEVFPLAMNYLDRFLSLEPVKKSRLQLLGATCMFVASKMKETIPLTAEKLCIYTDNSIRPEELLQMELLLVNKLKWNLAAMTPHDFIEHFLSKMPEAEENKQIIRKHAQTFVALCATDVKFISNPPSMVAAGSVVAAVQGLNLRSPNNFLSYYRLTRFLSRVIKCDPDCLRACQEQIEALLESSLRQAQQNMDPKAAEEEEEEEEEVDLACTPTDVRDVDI"}, "source": "paper PMC2919464", "biological_target": "LexA-Cdk4 (UniProt P11802)", "assay": "two-hybrid; yeast interaction mating: haploid strains with LexA DBD fusions (baits) mated with strains with B42 AD fusions (preys); diploids grown on selective media", "note": "No constants are given. Whether binding was seen depends on the method and setting. Some binding calls cover weakened binding; strength is not graded here.", "data": [{"substance": "AD-CyclinD1 (B42 activation domain fused to Cyclin D1) (from UniProt P24385 1-295)", "values": [{"measurement": "binding", "result": "binds"}]}]}
